{"source": "patent US5344843A", "about": "“Cat-1 inhibitors, pharmaceutical compositions and methods of use” (Hoffman-La Roche Inc., priority 1992, dated 1994)", "key": {"[1]": {"molecular_target": "T1, CAT-1 (carnitine acyltransferase 1) (Rattus norvegicus, UniProt Q63704)", "T1 construct": "This preparation is used as the isolated mitochondrial preparation; from tissue; host or cells: rat heart (atria removed), isolated mitochondria", "T1 sequence (Q63704 1-772)": "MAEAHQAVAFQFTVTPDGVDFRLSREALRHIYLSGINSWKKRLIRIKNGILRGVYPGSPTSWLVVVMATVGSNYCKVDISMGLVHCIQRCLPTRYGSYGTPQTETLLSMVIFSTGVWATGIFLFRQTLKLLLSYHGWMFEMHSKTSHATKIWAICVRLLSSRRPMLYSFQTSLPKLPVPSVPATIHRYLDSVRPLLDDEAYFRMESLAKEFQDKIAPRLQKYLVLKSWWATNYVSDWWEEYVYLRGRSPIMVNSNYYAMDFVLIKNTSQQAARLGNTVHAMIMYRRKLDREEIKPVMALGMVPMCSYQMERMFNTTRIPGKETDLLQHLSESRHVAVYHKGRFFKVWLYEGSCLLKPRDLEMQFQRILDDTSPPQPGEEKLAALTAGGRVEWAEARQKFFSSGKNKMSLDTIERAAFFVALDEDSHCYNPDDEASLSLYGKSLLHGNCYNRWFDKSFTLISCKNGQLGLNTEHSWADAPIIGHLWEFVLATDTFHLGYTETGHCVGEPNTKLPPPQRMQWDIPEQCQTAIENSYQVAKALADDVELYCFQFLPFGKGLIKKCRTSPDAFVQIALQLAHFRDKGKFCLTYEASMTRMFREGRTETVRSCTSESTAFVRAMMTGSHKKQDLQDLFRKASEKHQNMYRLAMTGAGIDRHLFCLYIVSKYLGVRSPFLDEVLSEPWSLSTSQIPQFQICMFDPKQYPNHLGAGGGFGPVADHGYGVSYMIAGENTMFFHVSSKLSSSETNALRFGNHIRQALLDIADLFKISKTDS", "assay": "Primary Screen--Inhibition of CAT-1 in isolated mitochondria", "assay_type": "biochemical", "conditions": "rat heart mitochondria, reduction of palmitoyl carnitine formation by 50%"}, "[2]": {"molecular_target": "T1, CAT-1 (carnitine acyltransferase 1)", "assay": "Secondary Screen--Inhibition of CAT-1 in intact cardiac myocytes (hypoxia-induced increase in long-chain acylcarnitines)", "assay_type": "cell-based", "conditions": "isolated rat cardiac myocytes, 50% inhibition of hypoxia-induced increase in long-chain acylcarnitines"}}, "note": "The name of at least one read-out is uncertain.", "data": [{"smiles": "O=C(O)C(=O)c1ccc(OCCCC(O)c2ccc3ccccc3c2)cc1", "note": "(racemic) [Example 280, rac-4-[4-hydroxy-4-(2-naphthalenyl)butoxy]-alpha-oxobenzeneacetic acid]", "values": [{"measurement": "IC50", "setting": "[1]", "result": 200, "unit": "nM"}, {"measurement": "IC50", "setting": "[2]", "result": 2000, "unit": "nM"}]}]}
